Construct, isoform or probe ends are uncertain for at least one entry. For some of these results: Weaker means in comparison with the reference protein, sequence or condition of that experiment. For some of these results: At least one verdict was read from the data and is not stated in words by the source.
Experiments:
RAD51 (Homo sapiens) [1] = molecular target: RAD51 (Homo sapiens) (UniProt Q06609); experiment: SPR; details: BRC4 injected, filament disassembles, SPR: 25 mM HEPES pH 7.4, 100 mM NaCl, 2 mM DTT, 2 mM ATP, 5 mM CaCl2, 5 mM MgCl2, recombinant protein
[2] = molecular target: RAD51 D184A (Homo sapiens) (UniProt Q06609); experiment: SPR; details: BRC4 injected, disassembly moderately reduced, SPR: 25 mM HEPES pH 7.4, 100 mM NaCl, 2 mM DTT, 2 mM ATP, 5 mM CaCl2, 5 mM MgCl2, recombinant protein, protein details: untagged (co-expressed with His6-MBP-BRC4)
[3] = system: RAD51 D184A + BRCA2 TR2 peptide; experiment: SPR; details: TR2 on preformed filament, ATP, Ca2+, Mg2+, SPR: 25 mM HEPES pH 7.4, 100 mM NaCl, 2 mM DTT, 2 mM ATP, 5 mM CaCl2, 5 mM MgCl2, recombinant protein, protein details: untagged (co-expressed with His6-MBP-BRC4)
[4] = molecular target: RAD51 D184A, D187A (Homo sapiens) (UniProt Q06609); experiment: SPR; details: BRC4 injected, disassembly largely reduced, SPR: 25 mM HEPES pH 7.4, 100 mM NaCl, 2 mM DTT, 2 mM ATP, 5 mM CaCl2, 5 mM MgCl2, recombinant protein, protein details: untagged (co-expressed with His6-MBP-BRC4)
[5] = system: RAD51 D184A, D187A + BRCA2 TR2 peptide; experiment: SPR; details: TR2 on preformed filament, weaker than D184A, ATP, Ca2+, Mg2+, SPR: 25 mM HEPES pH 7.4, 100 mM NaCl, 2 mM DTT, 2 mM ATP, 5 mM CaCl2, 5 mM MgCl2, recombinant protein, protein details: untagged (co-expressed with His6-MBP-BRC4)
RAD51 (Homo sapiens) [6] = molecular target: RAD51 (Homo sapiens) (UniProt Q06609); experiment: EMSA; details: EMSA: 25 mM HEPES pH 7.5, 150 mM NaCl, 2 mM DTT, 2 mM ATP, 5 mM CaCl2, room temperature, recombinant protein
[7] = molecular target: RAD51 D184A (Homo sapiens) (UniProt Q06609); experiment: EMSA; details: BRC4 pre-incubated, disruption moderately reduced, EMSA: 25 mM HEPES pH 7.5, 150 mM NaCl, 2 mM DTT, 2 mM ATP, 5 mM CaCl2, room temperature, recombinant protein, protein details: untagged (co-expressed with His6-MBP-BRC4)
[8] = system: RAD51 D184A + BRCA2 TR2 peptide; experiment: EMSA; details: TR2 binding to filament reduced, ATP, Ca2+, EMSA: 25 mM HEPES pH 7.5, 150 mM NaCl, 2 mM DTT, 2 mM ATP, 5 mM CaCl2, room temperature, recombinant protein, protein details: untagged (co-expressed with His6-MBP-BRC4)
[9] = molecular target: RAD51 D184A, D187A (Homo sapiens) (UniProt Q06609); experiment: EMSA; details: BRC4 pre-incubated, disruption severely impaired, EMSA: 25 mM HEPES pH 7.5, 150 mM NaCl, 2 mM DTT, 2 mM ATP, 5 mM CaCl2, room temperature, recombinant protein, protein details: untagged (co-expressed with His6-MBP-BRC4)
[10] = system: RAD51 D184A, D187A + BRCA2 TR2 peptide; experiment: EMSA; details: ATP, Ca2+, EMSA: 25 mM HEPES pH 7.5, 150 mM NaCl, 2 mM DTT, 2 mM ATP, 5 mM CaCl2, room temperature, recombinant protein, protein details: untagged (co-expressed with His6-MBP-BRC4)
RAD51 + MBP-TR2 S3291A = experiment: EMSA; details: TR2 mutant binding to filament drastically reduced; EMSA: 25 mM HEPES pH 7.5, 150 mM NaCl, 2 mM DTT, 2 mM ATP, 5 mM CaCl2, room temperature; recombinant …; label: 5' FAM; single-stranded DNA
[11] = label: 5' biotin, single-stranded DNA
[12] = label: 5' FAM, single-stranded DNA

Amino acid sequences for entries named in this document (tags omitted).
UniProt Q06609, whole entry: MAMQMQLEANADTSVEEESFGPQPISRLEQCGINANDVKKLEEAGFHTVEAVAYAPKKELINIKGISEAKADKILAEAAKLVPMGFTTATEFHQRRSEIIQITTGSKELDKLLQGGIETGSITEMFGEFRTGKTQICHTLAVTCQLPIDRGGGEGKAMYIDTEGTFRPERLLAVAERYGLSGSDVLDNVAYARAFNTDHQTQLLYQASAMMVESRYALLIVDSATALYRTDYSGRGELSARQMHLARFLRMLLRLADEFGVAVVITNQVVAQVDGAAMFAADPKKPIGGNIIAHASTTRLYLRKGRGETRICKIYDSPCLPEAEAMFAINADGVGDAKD
UniProt Q06609, whole entry D184A: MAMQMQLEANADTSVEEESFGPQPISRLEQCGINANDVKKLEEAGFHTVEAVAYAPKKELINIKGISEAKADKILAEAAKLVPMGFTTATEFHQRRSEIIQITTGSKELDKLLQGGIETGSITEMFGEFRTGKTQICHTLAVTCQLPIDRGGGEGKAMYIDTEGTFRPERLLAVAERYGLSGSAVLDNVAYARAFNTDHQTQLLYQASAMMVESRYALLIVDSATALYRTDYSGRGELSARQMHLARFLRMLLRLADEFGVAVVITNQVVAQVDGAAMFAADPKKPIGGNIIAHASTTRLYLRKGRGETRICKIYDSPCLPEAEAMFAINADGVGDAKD
UniProt Q06609, whole entry D184A/D187A: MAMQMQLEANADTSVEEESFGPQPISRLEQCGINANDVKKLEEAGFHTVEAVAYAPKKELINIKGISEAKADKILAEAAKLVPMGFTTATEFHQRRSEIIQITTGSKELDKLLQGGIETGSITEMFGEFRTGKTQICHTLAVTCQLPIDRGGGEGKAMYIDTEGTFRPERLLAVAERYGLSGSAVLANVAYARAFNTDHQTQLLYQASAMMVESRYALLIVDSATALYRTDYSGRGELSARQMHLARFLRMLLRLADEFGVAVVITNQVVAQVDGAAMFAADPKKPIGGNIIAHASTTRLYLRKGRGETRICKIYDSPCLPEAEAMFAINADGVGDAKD

ATGGTGTGTGTAGGTTAATGTGAGGAGGAGAGGTGAAGAAGGAGGAGAGAAGAAGGAGGC [60-nt ssDNA biotin]
binding result (RAD51 (Homo sapiens) [1]; [11]): binds more weakly
binding result [2, 11]: binds
binding result [3, 11]: binds more weakly
binding result [4, 11]: binds
binding result [5, 11]: binds more weakly

ATGGTGTGTGTAGGTTAATGTGAGGAGGAGAGGTGAAGAAGGAGGAGAGAAGAAGGAGGC (double strand) [60-bp dsDNA doubly biotinylated]
binding result (RAD51 (Homo sapiens) [6]; with or without mSA caps, label: 5' and 3' biotin on strand 1): binds

ATGGTGTGTGTAGGTTAATGTGAGGAGGAGAGGTGAAGAAGGAGGAGAGAAGAAGGAGGC (double strand) [60-bp dsDNA FAM]
binding result (RAD51 (Homo sapiens) [6]; ATP, Ca2+, label: 5' FAM on strand 1): binds
binding result (RAD51 (Homo sapiens) [6]; BRC4 pre-incubated, disrupts filament formation, label: 5' FAM on strand 1): binds more weakly
binding result ([7]; label: 5' FAM on strand 1): binds
binding result ([8]; label: 5' FAM on strand 1): binds more weakly
binding result ([9]; label: 5' FAM on strand 1): binds
binding result ([10]; TR2 binding to filament reduced, label: 5' FAM on strand 1): binds more weakly

ATGGTGTGTGTAGGTTAATGTGAGGAGGAGAGGTGAAGAAGGAGGAGAGAAGAAGGAGGC (double strand) [60-bp dsDNA biotin]
binding result (RAD51 (Homo sapiens) [1]; label: 5' biotin on strand 1): binds more weakly
binding result ([2]; label: 5' biotin on strand 1): binds
binding result ([3]; label: 5' biotin on strand 1): binds more weakly
binding result ([4]; label: 5' biotin on strand 1): binds
binding result ([5]; label: 5' biotin on strand 1): binds more weakly

ATGGTGTGTGTAGGTTAATGTGAGGAGGAGAGGTGAAGAAGGAGGAGAGAAGAAGGAGGC [60-nt ssDNA FAM]
binding result (RAD51 (Homo sapiens) [6]; ATP, Ca2+, label: 5' FAM, single-stranded DNA): binds
binding result (RAD51 (Homo sapiens) [6]; BRC4 pre-incubated, disrupts filament formation, label: 5' FAM, single-stranded DNA): binds more weakly
binding result (RAD51 + MBP-TR2 S3291A): binds more weakly
binding result [7, 12]: binds
binding result [8, 12]: binds more weakly
binding result [9, 12]: binds
binding result ([10]; TR2 binding to filament strongly reduced, label: 5' FAM, single-stranded DNA): binds more weakly

ATGGTGTGTGTAGGTTAATGTGAGGAGGAGAGGTGAAGAAGGAGGAGAGAAGAAGGAGGC [60-nt ssDNA doubly biotinylated]
binding result (RAD51 (Homo sapiens) [6]; with or without mSA caps, label: 5' and 3' biotin, single-stranded DNA): binds
